These are yes or no findings as the source states them, for the method shown. Binding seen in cells or lysates may run through a third protein. Some results given as binding are weak or reduced against the parent protein; the word gives no strength. Sequences can lack the tags named with a protein.
Key:
[1] = target: T1, FLAG-tagged UBXD8 (Homo sapiens (Human)) (UniProt Q96CS3); experiment: co-immunoprecipitation from HEK293T lysates with anti-FLAG M2 agarose, immunoblot with anti-HA [panel B]
T1 sequence: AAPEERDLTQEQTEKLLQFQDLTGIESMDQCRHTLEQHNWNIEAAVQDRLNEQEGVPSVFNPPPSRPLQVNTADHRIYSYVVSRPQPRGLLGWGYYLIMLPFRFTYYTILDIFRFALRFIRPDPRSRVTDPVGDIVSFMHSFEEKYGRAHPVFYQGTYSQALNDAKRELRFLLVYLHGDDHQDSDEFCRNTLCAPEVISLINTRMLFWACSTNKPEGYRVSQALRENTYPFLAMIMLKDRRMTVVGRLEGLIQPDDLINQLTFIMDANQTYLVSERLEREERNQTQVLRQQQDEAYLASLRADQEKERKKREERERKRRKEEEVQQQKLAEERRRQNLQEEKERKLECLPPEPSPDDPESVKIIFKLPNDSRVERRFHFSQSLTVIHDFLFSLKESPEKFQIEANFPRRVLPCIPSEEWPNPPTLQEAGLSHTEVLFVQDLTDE

Sequences of proteins named here, by UniProt entry; tags and fusion partners are left off. A change or cut given only in a name is not applied to a line headed by its entry.
UniProt Q9UKV5: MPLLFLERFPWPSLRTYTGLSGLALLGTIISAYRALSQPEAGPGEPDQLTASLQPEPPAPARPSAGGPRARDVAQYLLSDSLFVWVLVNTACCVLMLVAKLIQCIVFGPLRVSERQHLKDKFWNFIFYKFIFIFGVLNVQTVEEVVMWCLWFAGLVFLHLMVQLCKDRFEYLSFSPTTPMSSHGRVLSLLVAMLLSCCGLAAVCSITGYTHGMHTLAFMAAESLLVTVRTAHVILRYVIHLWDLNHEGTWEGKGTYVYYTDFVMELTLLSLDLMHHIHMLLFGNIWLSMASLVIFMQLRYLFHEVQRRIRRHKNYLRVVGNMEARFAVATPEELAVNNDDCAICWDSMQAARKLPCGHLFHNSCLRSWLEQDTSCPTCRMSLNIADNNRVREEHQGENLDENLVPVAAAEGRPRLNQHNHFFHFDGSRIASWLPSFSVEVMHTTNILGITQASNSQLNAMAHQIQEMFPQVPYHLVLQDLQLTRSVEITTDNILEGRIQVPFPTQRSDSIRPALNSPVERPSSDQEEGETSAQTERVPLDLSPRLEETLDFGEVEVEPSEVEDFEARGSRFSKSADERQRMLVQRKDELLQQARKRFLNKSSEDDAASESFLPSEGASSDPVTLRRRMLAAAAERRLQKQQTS

[2] = target: FLAG-tagged VCP (Homo sapiens (Human)) (UniProt P55072); experiment: as above
[3] = target: FLAG-tagged GP78 (Homo sapiens (Human)) (UniProt Q9UKV5); experiment: co-immunoprecipitation from HEK293T lysates with anti-FLAG M2 agarose, immunoblot with anti-HA [panel D]

- binding [1]: binds
- binding [2]: binds
- binding [3]: binds
B1: HA-UBAC2 (protein, not shown: small tags and cut ends)
chain: HCQKLFVYDLHAVKNDFQIWRLICGRIICLDLKDTFCSSLLIYNFRIFERRYGSRKFASFLLGSWVLSALFDFLLIEAMQYFFGITAASNLPSGFLAPVFALFVPFYCSIPRVQVAQILGPLSITNKTLIYILGLQLFTSGSYIWIVAISGLMSGLCYDSKMFQVHQVLCIPSWMAKFFSWTLEPIFSSSEPTSEARIGMGATLDIQRQQRMELLDRQLMFSQFAQGRRQRQQQGGMINWNRLFPPLRQRQNVNYQGGRQSEPAAPPLEVSEEQVARLMEMGFSRGDALEALRASNNDLNVATNFLLQH

Reference: US20210269519A1
